{
  "source": "patent US20230381101A1",
  "about": "“AQUEOUS PHARMACEUTICAL COMPOSITIONS COMPRISING SGLT-2 INHIBITORS” (Boehringer Ingelheim Vetmedica GmbH, priority 2022, published 2023)",
  "origin": "cited, not measured here",
  "conditions": "n-octanol/water; values taken from http://www.chemicalize.org/",
  "note": "At least one structure is not confirmed: it was looked up by name or label, or the drawing left a doubt.",
  "data": [
    {"smiles": "CN1CCCC1=O", "note": "[methylpyrrolidone]", "values": [
      {"measurement": "log10P", "result": "−0.356"}
    ]}
  ]
}
